The assay addresses T1, GFP-AGO1 (ARGONAUTE1, Arabidopsis thaliana) (Arabidopsis thaliana) (UniProt O04379).
T1 sequence: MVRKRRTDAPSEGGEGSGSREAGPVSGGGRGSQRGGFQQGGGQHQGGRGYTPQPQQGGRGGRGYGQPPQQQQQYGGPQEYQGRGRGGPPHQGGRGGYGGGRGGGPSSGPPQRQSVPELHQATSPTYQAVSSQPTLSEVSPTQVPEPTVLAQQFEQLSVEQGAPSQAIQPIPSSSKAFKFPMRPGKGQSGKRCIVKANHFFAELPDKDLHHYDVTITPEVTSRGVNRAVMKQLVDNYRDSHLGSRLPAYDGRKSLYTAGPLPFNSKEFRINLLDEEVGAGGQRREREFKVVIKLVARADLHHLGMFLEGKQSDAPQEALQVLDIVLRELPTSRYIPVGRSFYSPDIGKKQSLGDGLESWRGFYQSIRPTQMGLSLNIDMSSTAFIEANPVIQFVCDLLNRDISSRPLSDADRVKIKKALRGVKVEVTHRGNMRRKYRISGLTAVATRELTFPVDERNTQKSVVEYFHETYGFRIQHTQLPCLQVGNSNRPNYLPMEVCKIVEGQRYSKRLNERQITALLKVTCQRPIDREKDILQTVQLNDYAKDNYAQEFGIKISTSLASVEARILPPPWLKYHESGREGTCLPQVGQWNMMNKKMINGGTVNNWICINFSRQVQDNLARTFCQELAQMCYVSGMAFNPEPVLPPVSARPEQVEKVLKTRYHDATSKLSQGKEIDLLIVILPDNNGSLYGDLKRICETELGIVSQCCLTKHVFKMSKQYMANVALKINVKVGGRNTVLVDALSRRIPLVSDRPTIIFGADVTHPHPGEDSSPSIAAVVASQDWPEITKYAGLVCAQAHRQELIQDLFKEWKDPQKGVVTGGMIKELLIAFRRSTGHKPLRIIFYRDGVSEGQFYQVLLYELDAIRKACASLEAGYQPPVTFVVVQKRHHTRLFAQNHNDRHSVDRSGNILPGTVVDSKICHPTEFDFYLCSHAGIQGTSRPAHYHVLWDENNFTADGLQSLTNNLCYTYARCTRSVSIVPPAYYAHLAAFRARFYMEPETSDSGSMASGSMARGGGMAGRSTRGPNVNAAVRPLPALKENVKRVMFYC
Nature of the assay: affinity purification with mass spectrometry; GFP-AGO1 immunoprecipitated with magnetic microbeads coupled to GFP antibodies (μMACS GFP Isolation Kit) from 7-day-old pAGO1:GFP-AGO1 ago1-27 seedlings after 1 h HS at 37°C; lysis buffer 50mM Tris-HCl pH7,5, 50mM NaCl, 0,25% IGEPAL CA-630, 2mM MgCl2, 5mM DTT; control IPs in Col-0 and the p35S:GFP-3Flag line; nanoLC-MS/MS.

Amino acid sequences for entries named in this document (tags omitted).
UniProt Q9M2F9: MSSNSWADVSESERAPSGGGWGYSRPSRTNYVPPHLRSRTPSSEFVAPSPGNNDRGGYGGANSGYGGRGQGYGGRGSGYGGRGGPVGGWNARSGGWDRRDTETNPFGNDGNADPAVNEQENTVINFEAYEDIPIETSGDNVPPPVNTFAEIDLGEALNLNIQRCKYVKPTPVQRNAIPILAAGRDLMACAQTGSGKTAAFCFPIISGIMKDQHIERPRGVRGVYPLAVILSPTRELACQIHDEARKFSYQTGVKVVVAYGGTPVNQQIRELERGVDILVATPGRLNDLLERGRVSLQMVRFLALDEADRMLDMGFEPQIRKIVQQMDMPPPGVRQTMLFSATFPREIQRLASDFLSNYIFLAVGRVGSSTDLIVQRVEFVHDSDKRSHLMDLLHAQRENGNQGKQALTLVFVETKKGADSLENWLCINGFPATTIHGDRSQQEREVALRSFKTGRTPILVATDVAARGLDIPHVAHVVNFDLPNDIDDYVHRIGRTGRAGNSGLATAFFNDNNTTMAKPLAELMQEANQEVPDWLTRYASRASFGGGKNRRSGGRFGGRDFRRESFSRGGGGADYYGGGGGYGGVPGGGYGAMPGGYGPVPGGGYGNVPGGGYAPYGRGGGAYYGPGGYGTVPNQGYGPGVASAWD
UniProt Q8LA13: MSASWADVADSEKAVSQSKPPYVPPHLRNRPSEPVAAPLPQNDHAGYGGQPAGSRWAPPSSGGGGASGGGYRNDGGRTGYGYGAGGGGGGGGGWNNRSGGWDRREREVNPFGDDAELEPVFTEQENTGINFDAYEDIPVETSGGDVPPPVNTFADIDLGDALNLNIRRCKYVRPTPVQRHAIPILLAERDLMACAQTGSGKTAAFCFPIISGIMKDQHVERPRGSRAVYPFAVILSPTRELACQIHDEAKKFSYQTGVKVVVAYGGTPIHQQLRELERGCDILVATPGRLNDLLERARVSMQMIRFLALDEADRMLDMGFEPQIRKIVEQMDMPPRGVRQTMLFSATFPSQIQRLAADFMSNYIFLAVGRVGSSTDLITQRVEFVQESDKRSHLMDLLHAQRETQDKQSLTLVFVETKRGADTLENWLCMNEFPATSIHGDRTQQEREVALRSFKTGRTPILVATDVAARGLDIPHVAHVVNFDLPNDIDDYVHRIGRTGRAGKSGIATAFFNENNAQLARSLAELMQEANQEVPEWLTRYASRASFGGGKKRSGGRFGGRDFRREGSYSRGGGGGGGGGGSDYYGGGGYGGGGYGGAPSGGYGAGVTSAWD

No constants are given. Whether binding was seen depends on the method and setting. Binding seen in cells or lysates may run through a third protein. These calls come from enrichment with a bait or labelling near it, and not all partners need be listed. Where a sequence is shown, tags or fusion partners need not be part of it.

On to “RNA helicase RH52 (from UniProt Q9M2F9 1-646)”, for which the binding entry is listed as “binds”.

Consider G3BP1, for which the binding result is “binds”.

“RNA helicase RH11 (from UniProt Q8LA13 1-612)”: the binding result was “binds”.

B1: PAB2 (protein, UniProt P42731 1-629)
chain: MAQVQLQGQTPNGSTAAVTSAPATSGGATATQFGNTSLYVGDLDFNVTDSQLFDAFGQMGTVVTVRVCRDLVTRRSLGYGYVNFTNPQDAARAIQELNYIPLYGKPIRVMYSHRDPSVRRSGAGNIFIKNLDESIDHKALHDTFSSFGNIVSCKVAVDSSGQSKGYGFVQYANEESAQKAIEKLNGMLLNDKQVYVGPFLRRQERDSTANKTKFTNVYVKNLAESTTDDDLKNAFGEYGKITSAVVMKDGEGKSKGFGFVNFENADDAARAVESLNGHKFDDKEWYVGRAQKKSERETELRVRYEQNLKEAADKFQSSNLYVKNLDPSISDEKLKEIFSPFGTVTSSKVMRDPNGTSKGSGFVAFATPEEATEAMSQLSGKMIESKPLYVAIAQRKEDRRVRLQAQFSQVRPVAMQPSVGPRMPVYPPGGPGIGQQMFYGQAPPAMIPPQPGYGYQQQLVPGMRPGGGPVPSFFMPMVQPQQQRPGGGRRPGGIQHSQQQNPMMQQQMHPRGRMFRYPQGRGGSGDVPPYDMGNNMPLTIGALASNLSNATPEQQRTMLGEVLYPLVEQVEAESAAKVTGMLLEMDQTEVLHLLESPEALKAKVAEAMDVLRSVAAGGATEQLASLNLS
Take B1: the binding entry was “binds”.

B2: Tudor staphylococcal nuclease TSN1 (protein, UniProt Q8VZG7 1-991)
chain: MATGAENQWLKGRVKAVTSGDCLVITALSHNRAGPPPEKTITFSSLMAPKMARRGGIDEPFAWESKEFLRKLCIGKEVAFKVDYKVEAIAGREFGSVFLGNENLAKLVVKTGWAKVREPGQQNQDKVSPYIKELLQLEELAKQEGYGRWSKVPGAAEASIRNLPPSAIGDSAGFDAMGLLAANKGKPMEGIVEQVRDGSTIRVYLLPEFQFVQVFVAGVQAPSMGRRTTNGSVVETVPDEPNGDVSAESRGPLTTAQRLAASAASSVEVSSDPFATEAKYFTEHRVLSRDVRIVLEGVDKFNNLIGSVHYSDGETVKDLGLELVENGLAKFVEWSANMMEEEAKKKLKAAELQCKKDKVKMWANYVPPATNSKAIHDQNFTGKVVEVVSGDCLIVADDAVPFGSPAAERRVCLSSIRSPKMGNPRREEKPAPYAREAREFLRQRLIGKQVIVQMEYSRKVTQGDGPTTSGAADRFMDFGSVFLPSAAKADSDEVTAPPAAAIAGSQPVGVNIAELVLVRGFGNVVRHRDFEERSNHYDALLAAEARALAGKKGIHSAKESPAMHITDLTVSAAKKAKDFLPSLQRIRRIPAVVEYVLSGHRFKLYIPKITCSIAFSFSGVRCPGRGEPYSEEAISVMRRRIMQRDVEIEVETVDRTGTFLGSMWESRTNVATVLLEAGLAKMQTSFGADRIAEAHLLEQAERSAKNQKLKIWENYVEGEEVSNGNTNTVETRQKETLKVVVTEVLGGGRFYVQSAGDQKIASIQNQLASLSIKDAPIIGSFNPKRGDIVLAQFSLDNSWNRAMIVTAPRAAVQSPDEKFEVFYIDYGNQETVPYSAIRPIDPSVSAAPGLAQLCRLAYIKVPSLEDDFGPEAGEYLHTVTLGSGKEFKAVIEERDTSGGKVKGQGTGTEFVVTLIAVDDEISVNAAMLQEGIARMEKRQKWGHKGKQAALDALEKFQEEARKSRIGIWQYGDIESDDEDTGPARKPAGGRR
As to B2, the binding entry is given as “binds”.

B3: DCP5 (protein, UniProt Q9C658 1-611)
chain: MAADNTGSKSSSAADSYVGSLISLTSKSEIRYEGILYNINTDESSIGLQNVRSFGTEGRKKDGPQVPPSDKVYEYILFRGTDIKDLQVKASPPVQPPASTINNDPAIIQSHYPSPMPTSGSLPSTASGSLPDISSHNGQPGQHGMGFQNAMPLYQPGGNLGSWGASPQPPMYWQGFYTPPPNGLPQLHQQSLIRPPHGLPMPNSLQQPLQYPNFNTPPPPTGSSSLQGSSLPEAPSSLFPFSTSSQMLAPSSLPFPGLPPVTLSSSLQSTLQSAPSPSLASEMAPPLLSNKAPITAPPTLPQDTNLLSFSLSTTRATEASTGLPLSNKPSVVTGPISPPQTTPLTSAPVAGVSSSISQDKPKPLLVTPGQLLQSGSSAVSLSPPSTNADKDVEVVQVSSSAGLEQSVPVTSEAQPPILPLPSSARPTQKPNGHSFPNHNGYRGRGRGRGRGAGRSHQVMKFTEDFDFTAMNEKFNKDEVWGHLGKSTTLDGDEDDDSPTVDEAELPKIEAKPVYNKDDFFDSLSSNTIDRESQNSRPRFSEQRKLDTETFGEFSRFRGGRGGRGGYGRNNGYSRGGYGGRGYGGYGGRGGGGGGYGYGGRGQGRGVSNRTT
Take B3: the binding result is “binds”.

B4: VARICOSE (protein, UniProt Q9LTT8 1-1344)
chain: MASSPGNTNPHNTPPFDLGILFKPSSNPYPPPAASYPPPTGPFLHNQYDQQHYAPPGISAQPSPVTQQQQDVSSSSAATNLHPQRTLSYPTPPLNLQSPRSNHNPGTHILALLNNTNNGAPVANQEPSHQLPVVNHNEIARSFPGGSGPIRVPSCKLPKGRRLIGEHAVYDVDVRLQGEIQPQLEVTPITKYGSDPQLVVGRQIAVNKVYICYGLKGGNIRVLNINTALRSLFRGHSQRVTDMAFFAEDVDMLASVSLDGKVFVWKISEGSEGEDQPQITGKIVLALQILGEEDTKHPRVCWHCHKQEILVVSIGKHVLRIDTTKVGRGEVFSAEAPLQCPLDKLIDGVQIVGKHDGEVTDLSMCQWMTTRLVSSSVDGTIKIWQDRKAQPLVVLRPHDGHPVSSATFVTSPERPDHIILITGGPLNREMKIWVSAGEEGWLLPADAESWRCTQTLDLKSSTEPRAEEAFFNQVIALSEAGLLLLANAKRNALYAVHLDYGSSPVGTRMDYLSEFTVTMPILSFIGTNDPPEEPIVKVYCVQTLAIQQYTLDLCLCLPPPIENMGLEKSDSSVSREANLVEGMSEPSGLKPTDLPSVDSVPKPSIIVNRSESANKLSFPSAEATSQAIVPPNGEPKTSGLPSQTSGAGSAYATLPQLPLSPRLSSKLSGYHTPVEAIEPVIPHHELGGKTPSADYSVDRQMDAVGERNLDVSSVEEISRSKDSNVTPDDDVSGMRSPSAFFKHPTHLVTPSEILMGVSSAEASITTEDRRDRDANIQDVNNDPRDTEVEVKEISEARSTQNGEINDHDETENCTSENREKVFCSQVSNLSTEMARDCYPSTEGTFIPGESKAYGQPIKAGDESGVDSRGGPAKLLKGKKQKAKNSQGPGLSSTSSNVANLADSFNEQSQSLSHPMTDLLPQLLAMQETMNQVMASQKEMQRQLSNAATGPIGKESKRLEVALGRMIEKSSKSNADALWARIQEETVKNEKALRDHAQQIVNATTNFMSKELNAMFEKTIKKELAAIGPALARSVVPVIEKTVSSAITESFQRGIGDKAVNQLDKSVNIKLEATVARQIQAQFQTSGKQALQEGLRSSVESSVIPSFEKACKAMFDQIDSAFQKGIAEHTNAAQQRFDSGHSQLAHTLKESITSASSVAQALSRELAETQRNLLALAAAGANSGGSNSLVTQLSGGPLGALLEKVEAPMDPTTELSRLISERKYEESFTSALQRSDVSIVSWLCSQVDLRGLLAMNPLPLSQGVLLSLLQQLACDISKDTSRKLAWMTDVVAAINPSDQMIAVHARPIFEQVYQILHHHRNAPGSDVSAIRLIMHVINSMLMGCK
Turning to B4, the binding entry was “binds”.

B5: Tudor staphylococcal nuclease TSN2 (protein, UniProt Q9FLT0 1-985)
chain: MATGAATENQWLKGRVKAVTSGDCLVITALTHNRAGPPPEKTITLSSLMAPKMARRGGIDEPFAWESREFLRKLCIGKEVAFKVDYKVEAIAGREFGSVYLGNENLAKLVVQNGWAKVRRPGQQNQDKVSPYIAELEQLEEQAQQEGFGRWSKVPGAAEASIRNLPPSAVGDSGNFDAMGLLAASKGKPMEGIVEQVRDGSTIRVYLLPEFQFVQVFVAGLQAPSMGRRQSTQEAVVDPDVTATSNGDASAETRGPLTTAQRLAASAASSVEVSSDPFAMEAKYFTELRVLNRDVRIVLEGVDKFNNLIGSVYYSDGDTVKDLGLELVENGLAKYVEWSANMLDEEAKKKLKATELQCKKNRVKMWANYVPPASNSKAIHDQNFTGKVVEVVSGDCLVVADDSIPFGSPMAERRVCLSSIRSPKMGNPRREEKPAPYAREAKEFLRQKLIGMEVIVQMEYSRKISPGDGVTTSGAGDRVMDFGSVFLPSPTKGDTAVAAAATPGANIAELIISRGLGTVVRHRDFEERSNHYDALLAAEARAIAGKKNIHSAKDSPALHIADLTVASAKKAKDFLPSLQRINQISAVVEYVLSGHRFKLYIPKESCSIAFAFSGVRCPGRGEPYSEEAIALMRRKIMQRDVEIVVENVDRTGTFLGSMWEKNSKTNAGTYLLEAGLAKMQTGFGADRIPEAHILEMAERSAKNQKLKIWENYVEGEEVVNGSSKVETRQKETLKVVVTEVLGGGRFYVQTVGDQKVASIQNQLAALSLKDAPIIGSFNPKKGDIVLAQFSLDNSWNRAMIVNGPRGAVQSPEEEFEVFYIDYGNQEIVPYSAIRPVDPSVSSAPGLAQLCRLAYIKVPGKEEDFGRDAGEYLHTVTLESGKEFRAVVEERDTSGGKVKGQGTGTELVVTLIAVDDEISVNAAMLQEGIARMEKRRRWEPKDKQAALDALEKFQDEARKSRTGIWEYGDIQSDDEDNVPVRKPGRG
In the case of B5, the binding entry was “binds”.

Source of the values: publication PMC10879784.
